# Results as given in PubChem BioAssay AID493014 (National Center for Advancing Translational Sciences (NCATS), 2011).
# The list shows a part of the results. The main result of the screen is listed elsewhere. These columns were measured beside it and carry no call. Most of these compounds were active or inconclusive in the main read-out, so they are no random draw. Words in brackets tell the shape of the fitted curve; partial curves, single points and poor fits give uncertain potencies.
# Experiment: qHTS Assay to Find Inhibitors of Chronic Active B-Cell Receptor Signaling
# Details: ABC-DLBCL IkBa-CBG/CBR reporter, luminescence ratio (green luciferase fused to IkBa over red control in TMD8 lymphoma cells), 4 h
# Summary of the method: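 TMD8 human ABC-DLBCL cells with doxycycline-inducible IκBα–green luciferase fusion and unfused red luciferase, in 0.5% FBS medium; compounds up to 46 uM, 4 h at 37C. Green/red luminescence ratio, filter-overlap corrected, fitted to concentration-response curves.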
# [1] = measured here: CBR red luminescence, cell number
# [2] = measured here: IkBa-CBG green luminescence
Structure (SMILES),AC50 [1],AC50 [2]
O=C(N/N=C/c1ccccn1)c1cccc(NC(=O)c2ccccc2Cl)c1,"3.55 µM [falling, full curve]",
COc1ccc(CNC(=O)C(C#N)c2nc3ccccc3nc2N2CCCC2)cc1 (centres undefined),"6.31 µM [rising, single point]",
CSC(=NC#N)N1CCN(C(c2ccccc2)c2ccccc2)CC1,"35.5 µM [falling, single point]",
CCc1ccccc1NCC(=O)Nc1ccccc1C(=O)OC,"2.31 µM [falling, full curve, poor fit]",
COc1ccc(C2CC(=O)C=C(NCc3ccccc3)C2)cc1 (centres undefined),"0.631 µM [falling, full curve, poor fit]",
COc1ccc(CN2CCN(Cc3nc4ccccc4s3)CC2CCO)c(C)c1C (centres undefined),,"12.6 µM [falling, partial curve, poor fit]"
O=C(NCCc1ccc(Cl)cc1)c1cccc(N2CCCC2=O)c1,"35.5 µM [falling, single point]",
O=C(COC(=O)CCCSc1nc2ccccc2[nH]1)Nc1ccc(Cl)cc1,"29.1 µM [falling, single point]",
Oc1c(Cl)cc(Cl)cc1CNc1ccc(Br)cn1,"18.4 µM [rising, partial curve, poor fit]",
O=C(O)C1=CC[C@@H](c2ccc(Cl)cc2)N(S(=O)(=O)c2ccc(Cl)cc2)[C@H]1c1ccc(Br)cc1,"18.4 µM [falling, single point]",
Cc1cc(C(=O)Nc2ccc(Cl)cc2)c(C)n1Cc1cccs1,"15.8 µM [falling, single point]",
Cc1ccc(C2/C(=C(/O)c3ccc(OC(C)C)cc3)C(=O)C(=O)N2CCN2CCOCC2)cc1 (centres undefined),"7.08 µM [falling, partial curve, poor fit]",
COc1ccccc1-c1csc2ncnc(Sc3nnnn3C)c12,"32.6 µM [falling, partial curve, poor fit]",
CSCCC(NS(=O)(=O)c1cccc(C(F)(F)F)c1)C(=O)Nc1ccccc1N1CCCC1 (centres undefined),"20.6 µM [falling, single point]",
COc1ccc(C(=O)/C=C/c2ccc(O)cc2)cc1,"20 µM [falling, single point]",
C#CCOCCOCCOCCNc1nc(N2CCN(C(=O)CCCCCCCCCCNC(=O)[C@H](CO)n3cc(CCCSC)nn3)CC2)nc(N2CCN(C(=O)CCCCCCCCCCNC(=O)[C@H](CCCN=C(N)N)n3cc(C[C@@H](C)CC)nn3)CC2)n1,"16.4 µM [rising, partial curve]","18.4 µM [falling, partial curve, poor fit]"
O=C1N[C@H](Cc2ccccc2)COC(=O)[C@H](Cc2ccc(F)cc2)C/C=C\C[C@H]1CC(=O)N(CCO)Cc1ccccc1,"29.1 µM [falling, single point]",
CCN(CC)c1ccc(NC(=O)c2ccccc2Br)cc1S(=O)(=O)Nc1ccccc1OC,"0.82 µM [rising, full curve, poor fit]",
CN(NC(=S)Nc1ccc(OC(F)F)cc1)C(=S)Nc1ccc(OC(F)F)cc1,"32.6 µM [rising, single point]",
CC(Sc1nnc(-c2ccc(O)cc2)o1)C(=O)Nc1cccc2ccccc12 (centres undefined),"1.46 µM [falling, full curve]","32.6 µM [rising, partial curve, poor fit]"

# Copied from the list.
# Entry of `CC(Sc1nnc(-c2ccc(O)cc2)o1)C(=O)Nc1cccc2ccccc12` (centres undefined) under AC50 [1]: 1.46 µM [falling, full curve]
# Entry of `CSC(=NC#N)N1CCN(C(c2ccccc2)c2ccccc2)CC1` under AC50 [1]: 35.5 µM [falling, single point]

# Next part.

Structure (SMILES),AC50 [1],AC50 [2]
CCOC(=O)[C@@H]1[C@H]2COc3ccc(Br)cc3[C@H]2N2C(=O)N(c3ccc(Br)cc3)C(=O)[C@]12C,"3.16 µM [falling, partial curve, poor fit]",
O=C(O)c1ccccc1C(=O)NC1Cc2ccccc2C1,"31.6 µM [falling, single point]",
COc1ccc2c(c1)CCc1c(C(=O)NCCc3ccc(OC)c(OC)c3)noc1-2,,"13 µM [falling, partial curve, poor fit]"
COC(=O)c1cc(OC)c(OC)cc1NC(=O)CC1CCCCC1,"20.6 µM [rising, single point]",
COc1ccc(N2CCN(C(=O)C(Cc3ccccc3)n3cccc3)CC2)cc1 (centres undefined),"6.51 µM [rising, single point]",
Cc1ccc(-n2cc(CNC(C)c3cnn(C)c3C)c(-c3ccc(F)cc3)n2)cc1 (centres undefined),"3.16 µM [rising, partial curve, poor fit]",
COc1ccccc1C(=O)Nc1ccc2c(c1)CN(Cc1cnc(C)s1)CC2,"17.8 µM [falling, single point]",
CCN(CC)CCOC(=O)c1cccc(OC)c1,"9.2 µM [rising, partial curve, poor fit]",
O=C(NN=C(Cc1ccccc1)Cc1ccccc1)c1ccccc1O,"1.12 µM [falling, full curve]",
O=C(N/N=C/C1CC=CCC1)c1ccc(Cl)cc1O (centres undefined),"0.517 µM [falling, full curve]",
O=C(NCCN1CCc2ccccc2C1)Nc1ccc([N+](=O)[O-])cc1,"10 µM [rising, single point]",
O=C(COC(=O)c1cccc(S(=O)(=O)N2CCc3ccccc32)c1)NC1CCS(=O)(=O)C1 (centres undefined),"5.17 µM [rising, full curve, poor fit]",
Cc1ccc(-c2nn(-c3ccccc3)cc2/C=N/NC(=O)c2ccc(Br)o2)cc1,"10 µM [rising, partial curve, poor fit]",
CC1(C)C2CCC1(C)C(OC(=O)c1ccc(O)cc1)C2 (centres undefined),"35.5 µM [rising, single point]",
Nc1ccc(C(=O)Nc2cccc(NC(=O)c3ccc(N)cc3)c2)cc1,"3.98 µM [falling, full curve, poor fit]",
CC(C)OC(=O)CC12CN3CC(CC(=O)OC(C)C)(CN(C1)C(=O)c1ccccc1C3=O)C2=O,"35.5 µM [rising, single point]",
O=[N+]([O-])c1ccc2c(c1)Nc1nc3ccccc3nc1N2,"10 µM [rising, partial curve, poor fit]",
COc1cccc(N/C(N)=N/c2nc(C(F)(F)F)cc(C(F)(F)F)n2)c1,"7.08 µM [falling, partial curve]","14.1 µM [rising, partial curve, poor fit]"
CCOC(=O)c1ccccc1NC(=O)Cn1c(-c2nonc2N)nc2ccccc21,"10 µM [rising, partial curve, poor fit]","12.6 µM [falling, partial curve]"
CCOc1ccc(C(=O)CC(C(=O)O)N2CCN(Cc3ccccc3)CC2)cc1 (centres undefined),"29.1 µM [falling, single point]",

Structure (SMILES),AC50 [1],AC50 [2]
O=C(c1ccccc1)c1ccc2c(c1)OCCOCCOCCO2,"11.2 µM [falling, single point]",
O=C(/C=C/c1ccco1)NCCc1ccccc1,"7.94 µM [falling, partial curve]",
O=C(CSc1nc2ccccc2c(=O)[nH]1)Nc1ccccc1O,"35.5 µM [falling, single point]",
CCN(CC)c1ccc(NC(=O)c2cnn(CC)c2)cc1,"1.78 µM [rising, partial curve, poor fit]",
CCc1nc(CN2CCCC(C(=O)c3ccc4c5c(cccc35)CC4)C2)c(C)[nH]1 (centres undefined),"0.398 µM [falling, full curve, poor fit]",
O=C(O)COc1ccc(-c2nccc(-c3ccccn3)n2)cc1,"17.8 µM [falling, single point]",
Cc1cccc(-c2noc(CCC(=O)NC3CCCC3)n2)c1,"7.94 µM [rising, partial curve, poor fit]",
Cc1cc(C)c(NC(=O)c2cccc3c2C(=O)N(C2CCCCC2)C3)c(C)c1,"31.6 µM [rising, partial curve, poor fit]",
CCOc1c(Cl)cc(C(=O)Nc2cccc(C(=O)O)c2)cc1Cl,"35.5 µM [falling, single point]",
COc1cc(/C=C(\C#N)c2nc3ccc(C)cc3[nH]2)cc([N+](=O)[O-])c1O,,"35.5 µM [rising, partial curve, poor fit]"
N#Cc1c(=O)c2nc(NCc3ccccc3)ncc2n2ccccc12,"5.8 µM [falling, full curve, poor fit]",
N#CC1=C(N)Oc2c(ccc3cccnc23)C1c1ccncc1 (centres undefined),"35.5 µM [falling, single point]",
CSc1nc(-c2ccc(Cl)cc2)c(C#N)c(=O)[nH]1,"31.6 µM [rising, single point]",
CCOc1cc(Br)cc(/C=C2\SC(=Nc3ccccc3)NC2=O)c1O,"3.55 µM [falling, full curve, poor fit]",
O=C(O)CCc1ccc(-c2ccccc2)n1-c1cccc(O)c1,"2.59 µM [rising, full curve, poor fit]",
Cc1ccc(N2CCN(C(=O)N3CCCC3)CC2)cc1C,"7.31 µM [falling, single point]",
O=C(COC(=O)c1cc(-c2ccc(F)cc2)nc2ccccc12)NCC1CCCO1 (centres undefined),"0.501 µM [falling, full curve, poor fit]",
Cc1cc(C)cc(NC(=O)CN2C(=O)c3ccccc3Sc3ccc(C(=O)N4CCOCC4)cc32)c1,"12.6 µM [falling, partial curve]",
Cc1ccc2nc(N/N=C/c3ccco3)cc(C)c2c1,"5.62 µM [rising, single point]",
C=CCc1ccccc1OCC(O)CN1CCN(c2ccc(C)cc2)CC1 (centres undefined),"12.6 µM [rising, single point]",
